# Measurements reported in patent US11071770B2, “Methods for detecting cardiac damage” (Acorda Therapeutics, Inc., priority 2007, dated 2021).
# For at least one compound, name, drawing or mass did not settle the structure.
# Legend:
# [1] = test system: mTOR, P70S6K, S6 and eIF4G; test: Phosphorylation of translational molecules by Western blot; assay type: cell-based, rat; conditions: Dox+NRG1+LY
# [2] = test system: caspase 3, 6 and 9 as well as caspase-10, 2, and 5; test: Caspase activation assay in cardiomyocytes; assay type: cell-based, rat; conditions: Dox+NRG1+LY
# Excerpt: To investigate whether NRG1 inhibited doxorubicin-induced caspase degradation of cTnI and cTnT, the present inventors first identified the specific caspases that were responsible for doxorubicin-induced degradation of cTnI and cTnT. […] In addition, down-regulation of cTnI was blocked by inhibitors for caspase-10 (extrinsic pathway), caspase-2, caspase-13 or caspase-5.
smiles,measurement,setting,value
O=c1cc(N2CCOCC2)oc2c(-c3ccccc3)cccc12 [LY294002],effect on NRG-1 maintenance of phosphorylation of translational molecules,[1],blocked these effects
same,effect on NRG1 inhibition of doxorubicin-induced caspase activation,[2],abolished these effects of NRG1
